Reference: paper PMC4689212
Results are given in words; binding and its absence hold for the method and conditions named. Binding seen in cells or lysates may run through a third protein. Some entries that bind do so weakly or less than the wild type.

Chains of the proteins cited; added tags and fusions are not shown. Residues count along the entry.
UniProt P37173, residues 23-567: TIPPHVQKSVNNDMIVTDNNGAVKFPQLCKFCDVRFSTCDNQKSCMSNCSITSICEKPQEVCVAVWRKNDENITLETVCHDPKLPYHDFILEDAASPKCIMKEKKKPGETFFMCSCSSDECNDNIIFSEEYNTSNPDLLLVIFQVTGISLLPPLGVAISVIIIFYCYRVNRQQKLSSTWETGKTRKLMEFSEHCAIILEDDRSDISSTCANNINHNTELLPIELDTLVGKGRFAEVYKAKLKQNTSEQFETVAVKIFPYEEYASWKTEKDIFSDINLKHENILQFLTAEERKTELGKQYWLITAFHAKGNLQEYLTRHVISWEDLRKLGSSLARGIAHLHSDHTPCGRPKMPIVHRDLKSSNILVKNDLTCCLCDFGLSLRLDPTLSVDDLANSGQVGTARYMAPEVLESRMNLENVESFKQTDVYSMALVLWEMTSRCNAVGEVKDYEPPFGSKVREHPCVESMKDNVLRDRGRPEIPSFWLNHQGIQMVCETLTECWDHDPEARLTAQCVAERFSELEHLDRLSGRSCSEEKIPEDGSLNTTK
UniProt P26012, residues 43-769: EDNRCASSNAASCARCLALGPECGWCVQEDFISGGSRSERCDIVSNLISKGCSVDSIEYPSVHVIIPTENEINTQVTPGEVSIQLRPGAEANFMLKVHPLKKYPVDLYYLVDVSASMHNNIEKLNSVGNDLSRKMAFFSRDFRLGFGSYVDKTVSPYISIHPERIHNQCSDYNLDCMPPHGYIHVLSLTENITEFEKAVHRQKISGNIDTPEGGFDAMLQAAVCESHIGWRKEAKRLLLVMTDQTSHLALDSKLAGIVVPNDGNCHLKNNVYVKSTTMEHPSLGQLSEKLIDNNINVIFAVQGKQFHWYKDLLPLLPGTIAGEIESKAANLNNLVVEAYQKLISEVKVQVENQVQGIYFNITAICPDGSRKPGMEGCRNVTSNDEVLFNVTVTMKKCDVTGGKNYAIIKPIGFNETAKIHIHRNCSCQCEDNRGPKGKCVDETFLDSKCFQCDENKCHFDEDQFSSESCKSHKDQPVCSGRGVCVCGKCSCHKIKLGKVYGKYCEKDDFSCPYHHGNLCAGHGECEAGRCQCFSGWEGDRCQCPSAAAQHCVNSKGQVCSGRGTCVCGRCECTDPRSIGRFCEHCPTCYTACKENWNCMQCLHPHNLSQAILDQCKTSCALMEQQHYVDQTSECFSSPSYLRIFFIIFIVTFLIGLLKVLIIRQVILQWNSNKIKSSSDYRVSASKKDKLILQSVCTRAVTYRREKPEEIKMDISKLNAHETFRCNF

Key:
TGFβR2 = TGFβR2 (UniProt P37173); experiment: co-IP; HEK-293T cells transfected with Nrp1 (wild type or deletion constructs) and TGFβR2; protein complexes detected (Fig. S8E-G, legend not shown)
[1] = target: V5-tagged human β8 integrin (human) (UniProt P26012); experiment: co-IP; HEK-293 cells co-transfected with Nrp1 (full-length rat or deletion constructs) and V5-tagged human β8 integrin; detergent-soluble lysates (RIPA) immunoprecipitated with anti-V5, immunoblotted with anti-Nrp1
[2] = target: T1, β8 integrin (Itgb8), endogenous in mouse brain (mouse (endogenous in neonatal brain)) (UniProt Q0VBD0); experiment: co-IP; endogenous proteins in detergent-soluble lysates of wild-type neonatal mouse brains; β8-/- brain lysates as control
T1 sequence: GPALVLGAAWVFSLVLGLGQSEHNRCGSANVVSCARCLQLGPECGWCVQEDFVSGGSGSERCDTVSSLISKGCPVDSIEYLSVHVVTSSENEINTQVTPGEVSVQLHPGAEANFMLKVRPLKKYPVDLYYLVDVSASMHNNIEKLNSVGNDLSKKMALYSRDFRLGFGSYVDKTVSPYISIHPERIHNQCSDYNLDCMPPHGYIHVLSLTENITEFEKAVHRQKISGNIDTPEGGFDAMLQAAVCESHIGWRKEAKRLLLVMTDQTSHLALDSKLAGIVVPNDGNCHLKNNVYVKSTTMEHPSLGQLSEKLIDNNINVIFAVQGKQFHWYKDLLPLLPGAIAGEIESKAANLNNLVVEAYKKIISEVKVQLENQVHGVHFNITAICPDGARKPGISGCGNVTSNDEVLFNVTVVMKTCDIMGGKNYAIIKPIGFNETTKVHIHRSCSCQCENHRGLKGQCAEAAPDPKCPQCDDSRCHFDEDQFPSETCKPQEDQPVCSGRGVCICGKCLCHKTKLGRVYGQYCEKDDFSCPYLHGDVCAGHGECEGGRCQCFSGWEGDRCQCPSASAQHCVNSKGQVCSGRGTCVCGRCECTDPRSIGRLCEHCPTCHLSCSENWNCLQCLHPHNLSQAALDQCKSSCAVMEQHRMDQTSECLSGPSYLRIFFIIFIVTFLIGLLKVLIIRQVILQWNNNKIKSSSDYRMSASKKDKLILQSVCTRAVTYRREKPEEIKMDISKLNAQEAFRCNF

Substance: Nrp1 (transfected, in the experiment with TGFβR2) (from UniProt Q9QWJ9 22-922) (receptor)
- binding (TGFβR2): binds

Substance: full-length rat Nrp1 (from UniProt Q9QWJ9 22-922) (receptor)
- binding [1]: binds

Substance: Neuropilin 1 (Nrp1), endogenous in mouse brain (from UniProt P97333 22-923) (receptor)
- binding [2]: binds
